For this assay, the target named is T1, CCF-1 (CCR4 associated factor), deadenylase subunit of the CCR4-NOT complex (C. elegans) (UniProt Q17345).
T1 sequence: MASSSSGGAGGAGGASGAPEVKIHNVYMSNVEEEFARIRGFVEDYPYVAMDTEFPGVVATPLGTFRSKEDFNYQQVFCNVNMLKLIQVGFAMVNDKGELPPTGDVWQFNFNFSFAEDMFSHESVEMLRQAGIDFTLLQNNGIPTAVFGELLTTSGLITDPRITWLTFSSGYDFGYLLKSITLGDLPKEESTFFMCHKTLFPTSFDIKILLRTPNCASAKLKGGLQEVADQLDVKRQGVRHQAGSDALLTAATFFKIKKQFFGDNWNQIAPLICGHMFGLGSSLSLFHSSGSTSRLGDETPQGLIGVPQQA
Briefly: two-hybrid.

Results are given in words; binding and its absence hold for the method and conditions named. Binding calls can cover weak binding; strength is not graded here.

As for “CCR4, catalytic subunit of the CCR4-NOT complex (C. elegans)”, the binding entry was “binds”.
